Results are given in words; binding and its absence hold for the method and conditions named. Some entries that bind do so weakly or less than the wild type.

By UniProt entry, the sequences of proteins in these tests, tags left out. Residues count along the entry.
GST-HDAC1 1-117 (Q13547, residues 1-117): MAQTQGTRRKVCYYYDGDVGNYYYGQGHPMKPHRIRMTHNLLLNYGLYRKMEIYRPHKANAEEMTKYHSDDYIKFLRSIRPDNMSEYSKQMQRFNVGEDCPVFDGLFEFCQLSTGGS
GST-HDAC1 375-482 (Q13547, residues 375-482): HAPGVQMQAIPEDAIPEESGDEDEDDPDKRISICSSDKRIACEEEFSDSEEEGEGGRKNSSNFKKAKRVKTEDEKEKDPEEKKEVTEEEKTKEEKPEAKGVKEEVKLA
UniProt Q09472: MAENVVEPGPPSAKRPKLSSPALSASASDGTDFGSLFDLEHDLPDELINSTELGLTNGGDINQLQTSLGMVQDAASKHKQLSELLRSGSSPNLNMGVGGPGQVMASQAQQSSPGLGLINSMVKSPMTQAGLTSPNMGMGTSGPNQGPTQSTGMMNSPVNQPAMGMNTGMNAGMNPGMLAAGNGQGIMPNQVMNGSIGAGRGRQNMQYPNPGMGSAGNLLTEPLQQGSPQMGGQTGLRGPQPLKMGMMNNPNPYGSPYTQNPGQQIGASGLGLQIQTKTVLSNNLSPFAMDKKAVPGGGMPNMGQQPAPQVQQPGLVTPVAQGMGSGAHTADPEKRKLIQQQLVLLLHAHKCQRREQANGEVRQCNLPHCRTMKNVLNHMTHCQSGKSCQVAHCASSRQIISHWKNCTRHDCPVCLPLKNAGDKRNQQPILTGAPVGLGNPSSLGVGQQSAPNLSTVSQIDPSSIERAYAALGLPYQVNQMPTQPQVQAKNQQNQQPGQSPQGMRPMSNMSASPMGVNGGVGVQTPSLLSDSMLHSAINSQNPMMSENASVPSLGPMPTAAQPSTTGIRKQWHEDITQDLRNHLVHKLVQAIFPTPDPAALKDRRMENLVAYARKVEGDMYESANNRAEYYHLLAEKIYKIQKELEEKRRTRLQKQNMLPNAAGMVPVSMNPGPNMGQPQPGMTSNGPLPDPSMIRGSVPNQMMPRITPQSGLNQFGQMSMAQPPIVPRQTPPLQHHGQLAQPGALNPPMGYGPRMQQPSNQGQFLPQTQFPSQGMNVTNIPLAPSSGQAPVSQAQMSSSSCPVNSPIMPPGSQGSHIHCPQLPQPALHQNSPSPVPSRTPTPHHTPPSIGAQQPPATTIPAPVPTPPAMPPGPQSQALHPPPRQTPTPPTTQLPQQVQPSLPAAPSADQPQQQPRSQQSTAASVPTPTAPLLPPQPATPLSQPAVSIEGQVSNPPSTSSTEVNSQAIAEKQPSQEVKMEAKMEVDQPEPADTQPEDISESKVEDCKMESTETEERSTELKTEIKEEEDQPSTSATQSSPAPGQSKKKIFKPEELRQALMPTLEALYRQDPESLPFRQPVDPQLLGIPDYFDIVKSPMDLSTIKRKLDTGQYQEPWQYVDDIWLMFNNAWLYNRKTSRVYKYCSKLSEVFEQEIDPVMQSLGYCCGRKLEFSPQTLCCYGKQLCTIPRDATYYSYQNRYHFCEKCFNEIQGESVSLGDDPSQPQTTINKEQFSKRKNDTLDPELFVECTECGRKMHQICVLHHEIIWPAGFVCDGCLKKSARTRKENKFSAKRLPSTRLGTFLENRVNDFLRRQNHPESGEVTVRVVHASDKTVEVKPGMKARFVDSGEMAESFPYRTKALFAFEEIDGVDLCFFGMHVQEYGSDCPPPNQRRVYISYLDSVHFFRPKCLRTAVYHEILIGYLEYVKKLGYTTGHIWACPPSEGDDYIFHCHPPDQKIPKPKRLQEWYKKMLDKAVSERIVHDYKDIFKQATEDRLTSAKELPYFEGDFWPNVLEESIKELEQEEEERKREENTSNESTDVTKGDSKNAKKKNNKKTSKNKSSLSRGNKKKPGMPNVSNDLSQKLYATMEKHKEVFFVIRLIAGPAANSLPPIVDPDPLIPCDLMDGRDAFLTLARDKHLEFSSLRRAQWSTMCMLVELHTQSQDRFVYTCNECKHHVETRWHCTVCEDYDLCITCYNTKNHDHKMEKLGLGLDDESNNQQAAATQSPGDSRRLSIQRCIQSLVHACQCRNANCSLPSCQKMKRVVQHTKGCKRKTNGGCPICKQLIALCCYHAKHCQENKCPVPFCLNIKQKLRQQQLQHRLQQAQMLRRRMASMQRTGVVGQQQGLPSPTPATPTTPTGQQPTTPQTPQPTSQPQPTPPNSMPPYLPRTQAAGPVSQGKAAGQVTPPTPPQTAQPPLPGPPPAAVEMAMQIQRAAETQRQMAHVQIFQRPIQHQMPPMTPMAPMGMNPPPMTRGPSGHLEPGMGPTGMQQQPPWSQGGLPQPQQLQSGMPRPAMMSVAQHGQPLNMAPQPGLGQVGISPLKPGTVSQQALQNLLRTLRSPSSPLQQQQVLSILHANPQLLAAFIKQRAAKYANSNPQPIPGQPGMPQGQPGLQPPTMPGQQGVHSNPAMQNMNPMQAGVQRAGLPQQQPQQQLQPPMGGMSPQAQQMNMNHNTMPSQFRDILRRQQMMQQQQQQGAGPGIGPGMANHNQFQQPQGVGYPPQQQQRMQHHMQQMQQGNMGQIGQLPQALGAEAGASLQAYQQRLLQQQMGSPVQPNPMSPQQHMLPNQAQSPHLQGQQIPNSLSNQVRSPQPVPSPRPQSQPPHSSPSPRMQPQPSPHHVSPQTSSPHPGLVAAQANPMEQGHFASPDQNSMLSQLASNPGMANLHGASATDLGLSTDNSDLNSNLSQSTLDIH

For one test, the target named is GST-HDAC1 375-482 (UniProt Q13547). The experiment in a line: pull-down; 300 ng GST-tagged protein immobilised on glutathione-sepharose 4B; 100 ng purified Flag-tagged protein in 150 uL (150 mM NaCl, 50 mM Tris-HCl pH 8.0, 2 mM EDTA, 0.1% Nonidet P40), 30 min, room temperature; anti-Flag Western blot; for HDAC1 on GST-H3 also with 100 nM or 300 nM TSA; both purified.

The target in the next test is GST-HDAC1 1-117 (UniProt Q13547). Described as above.

Consider “Flag-tagged p300 (from UniProt Q09472 1-2414) (enzyme)”, for which the binding result with GST-HDAC1 375-482 and with GST-HDAC1 1-117 was “binds” each time.

The values above are taken from paper PMC3983199.
